Source: the supplement of paper PMC10338343
± gives the standard deviation. The list shows a part of the results, in another mix than the full data. The uncertainty is large for many entries. This is one part of the list.

Columns and labels:
[1] = system: MILI (PIWIL2) piRISC loaded with L1MC piRNA (26 nt); experiment: pre-steady-state target cleavage rate (min^-1); higher = faster piRNA-guided slicing of the target; conditions: guide: L1MC piRNA 5'p-UAACUAAAUACUAUGCAAGCUGUAGG
Summary of the method: (§1)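 Cleave-'n-Seq: 1 nM active affinity-purified piRISC with one synthetic guide and 0.1 nM transcribed, DNA-blocked target RNA library were mixed, with or without 500 nM GTSF1 partner protein, in HEPES–potassium acetate buffer at 33 °C for 0–8 or 0–960 min. Uncleaved targets were sequenced and normalised to depth and to weakly complementary targets, three trials were pooled, and k3 was capped at 0.0001 min^-1. The pre-steady-state cleavage rate was fitted […].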

[2] = system: EfPiwi piRISC loaded with L1MC piRNA (26 nt); experiment: pre-steady-state target cleavage rate (min^-1); guide: L1MC piRNA 5'p-UAACUAAAUACUAUGCAAGCUGUAGG; MIWI and MILI are mouse PIWI proteins and EfPiwi is from a freshwater sponge; tags in brackets are library labels; higher = faster piRNA-guided slicing of the target
Summary of the method: as §1

[3] = auxiliary factor: 500 nM mouse GTSF1
[4] = auxiliary factor: none (no GTSF1)
[5] = auxiliary factor: 500 nM Ephydatia muelleri Gtsf1
[6] = auxiliary factor: none (no Gtsf1)

Row | Sequence | pre-steady-state target cleavage rate [1, 3] | pre-steady-state target cleavage rate [1, 4] | pre-steady-state target cleavage rate [2, 5] | pre-steady-state target cleavage rate [2, 6]
1 | UCCUGGAUGUCCUCGCAUAGUAUUUAGUUA | 0.0711 ± 0.01 | 0.00777 ± 0.0022 | 0.00388 ± 0.0033 | –
2 | UCCUGGAUGUCGUUGGUUAGUAUUUAGUUA | 0.00204 ± 0.0062 | 0.000672 ± 0.0093 | < 0.0001 | –
3 | UCCUGGUACAGCAUGCAUAGUAUUUUGUUA | 0.11 ± 0.022 | 0.00364 ± 0.0034 | 0.00273 ± 0.0034 | –
4 | UCCUGGAUGUCGAUGCAUAGUAUUUAGCUUA | 0.0496 ± 0.014 | 0.00233 ± 0.0031 | 0.00156 ± 0.0047 | –
5 | UCCUGGAACAGCUUGCAUAUUAUUUAGUUA | 0.0696 ± 0.008 | 0.00259 ± 0.0029 | 0.0169 ± 0.0055 | –
6 | UCCUCCUACAGCGUGCAUAGUAUUUAGUUA | 0.309 ± 0.021 | 0.00999 ± 0.003 | 0.1 ± 0.026 | –
7 | UCCUGGAUCAGGCUUGCAUAGUAUUUAGUUA | 0.213 ± 0.017 | 0.0107 ± 0.0028 | 0.0132 ± 0.0034 | –
8 | UCCUGCUACAAGCUUGCAUAGUAUUUAGUUA | 0.157 ± 0.015 | 0.00805 ± 0.002 | – | 0.00064 ± 0.0085
9 | UCCUGGAUCAGCUUGCAUAGUUUUUAGAAA | 0.0202 ± 0.0088 | 0.00104 ± 0.0052 | 0.00205 ± 0.0024 | –
10 | UCCUGGAUGAGCUUGCAUUGUAUUUAGUAA | 0.127 ± 0.021 | 0.00311 ± 0.0025 | 0.00311 ± 0.0025 | –
11 | UCCUGGAUGAGCUUGCAAAGUUUUUAGUUA | 0.00724 ± 0.004 | 0.00276 ± 0.0036 | 0.000504 ± 0.016 | –
12 | UCCUGGAACAGCUUGCAUAGUAUUAAGUAA | 0.0909 ± 0.024 | 0.000961 ± 0.0073 | 0.00572 ± 0.0023 | –
13 | UCCUGGAUCAGCUUGCAUAGUAUUUCGUUA | 0.147 ± 0.034 | 0.00354 ± 0.0024 | 0.00263 ± 0.002 | –
14 | UCCUCCUACAGCUUGGCAUAGUAUUUAGUUA | 0.338 ± 0.057 | 0.00447 ± 0.0021 | 0.0133 ± 0.0047 | –
15 | UCCUCCUAGAGCUUGCAUAGUAUUUAGAUA | 0.123 ± 0.025 | 0.00123 ± 0.0051 | 0.0043 ± 0.0018 | –
16 | UCCUGCUAGAGCUUGCAUUGUAUUUAGUUA | 0.219 ± 0.018 | 0.0097 ± 0.0023 | 0.00751 ± 0.0022 | –
17 | UCCUGCUACAGGUUGCAUAGUAUUUUGUUA | 0.165 ± 0.028 | 0.00477 ± 0.0031 | – | 0.000559 ± 0.022

Pulled one by one from the list above (2):
Row | Sequence | pre-steady-state target cleavage rate [1, 3] | pre-steady-state target cleavage rate [1, 4] | pre-steady-state target cleavage rate [2, 5] | pre-steady-state target cleavage rate [2, 6]
15 | UCCUCCUAGAGCUUGCAUAGUAUUUAGAUA | 0.123 ± 0.025 | 0.00123 ± 0.0051 | 0.0043 ± 0.0018 | –
16 | UCCUGCUAGAGCUUGCAUUGUAUUUAGUUA | 0.219 ± 0.018 | 0.0097 ± 0.0023 | 0.00751 ± 0.0022 | –
